Source: patent publication EP4574843A1
These are yes or no findings as the source states them, for the method shown.

These binders were tested against recombinant cynomolgus LILRB2 (cynomolgus (Macaca fascicularis)) (assay: SPR, LILRB2 immobilised, scFv as analyte).

Row | binding | Binder
1 | no binding (tested: 10 nM) | PRO3697, scFv (VL-linker-VH) 69-06-G04-sc05_(VL_A67G_S68G; VH_T101S_L146K) (scFv) scFv: AFQLTQSPSSLSASVGDRVTITCQASQSIGTYLAWYQQKPGKPPKLLIYRGGTLASGVPSRFSGSGSGTDFTLTISSLQPEDFATYYCQSYDSSNTFGTGTKVTVLGGGGGSGGGGSGGGGSGGGGSQEQLVESGGGLVQPGRSLRLSCAASGFDLSADYMCWVRQAPGKGLEWIACIYIDDDNTYYATWAKGRFTISKDNSKNTVYLQMNSLRAEDSAVYFCARGYGVYTGAITYFTLWGQGTLVKVSS
2 | no binding (tested: 10 nM) | PRO3696, scFv (VL-linker-VH) 69-01-E02-sc06_(VL_A67G_S68G; VH_T101S_L146K) (scFv) scFv: DVQMTQSPSSLSASVGDRVTITCQASQSIGLNLAWYQQKPGKPPKLLIYAGGYLASGVSSRFSGSGSGTDFTLTISSLQPEDFATYYCQSTYDGSSFVFAFGTGTKVTVLGGGGGSGGGGSGGGGSGGGGSQEQLVESGGGLVQPGGSLRLSCAASGFSFSSSSYMCWVRQAPGKGLEWIACMVTGSSDDTDYASWAKGRFTISKDNSKNTVYLQMNSLRAEDSAVYFCARAGSAPLWGQGTLVKVSS
3 | no binding (tested: 10 nM) | PRO3744, scFv (VL-linker-VH) 68-18-E11-sc07_(VL_A67G_S68G_T141C; VH_G51C_T101S_T146K) (scFv) scFv: DVQMTQSPSSLSASVGDRVTITCQASQSIGSNLAWYQQKPGKPPKLLIYKGGTLESGVPSRFSGSGSGTDFTLTISSLQPEDFATYYCQSTAGSSRSGNYGYVFGCGTKVTVLGGGGGSGGGGSGGGGSGGGGSQQLVESGGGLVQPGGSLRLSCAASGFSFTNNYYMCWVRQAPGKCLEWIACMLVGAWGNTYYASWANGRFTISKDNSKNTVYLQMNSLRAEDSAVYFCARARDYTWTLGGDPETSGFNLWGQGTLVKVSS
